According to publication PMC10776482:
These are yes or no findings as the source states them, for the method shown. Binding seen in cells or lysates may run through a third protein. Some binding calls cover weakened binding; strength is not graded here. Tags and fused reporters may be left off the sequences shown.

Experiments:
Assay in all cases: co-IP; GFP-Trap beads with lysates of HEK293T cells transfected with EGFP-NDEL1 WT or variants (24 h); 4 °C, 15-18 h, six washes; co-precipitated LIS1 detected by western blot
[1] = target: T1, EGFP-tagged NDEL1 (wild type, mouse Ndel1 cDNA) (mouse) (UniProt Q9ERR1)
T1 sequence: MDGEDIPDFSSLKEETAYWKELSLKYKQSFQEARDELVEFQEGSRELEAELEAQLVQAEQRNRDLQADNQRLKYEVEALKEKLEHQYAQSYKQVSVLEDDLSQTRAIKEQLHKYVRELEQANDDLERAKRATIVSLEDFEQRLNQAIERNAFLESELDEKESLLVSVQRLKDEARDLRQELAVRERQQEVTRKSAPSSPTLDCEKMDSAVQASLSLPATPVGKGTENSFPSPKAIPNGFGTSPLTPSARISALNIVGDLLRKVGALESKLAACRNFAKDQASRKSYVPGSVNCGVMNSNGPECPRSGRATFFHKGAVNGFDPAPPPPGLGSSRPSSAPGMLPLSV

[2] = target: T2, EGFP-tagged NDEL1 p.R105Q variant (mouse Ndel1 cDNA) (mouse) (UniProt Q9ERR1)
T2 sequence: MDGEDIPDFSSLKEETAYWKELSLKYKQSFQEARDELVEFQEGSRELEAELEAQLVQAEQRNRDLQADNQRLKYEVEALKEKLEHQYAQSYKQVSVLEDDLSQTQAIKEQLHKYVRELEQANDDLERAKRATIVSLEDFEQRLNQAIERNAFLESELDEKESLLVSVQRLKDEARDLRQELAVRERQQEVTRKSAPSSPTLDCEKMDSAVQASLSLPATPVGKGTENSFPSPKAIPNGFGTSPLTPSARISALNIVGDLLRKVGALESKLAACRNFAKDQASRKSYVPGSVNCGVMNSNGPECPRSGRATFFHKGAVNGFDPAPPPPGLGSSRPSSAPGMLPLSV

[3] = target: T3, EGFP-tagged NDEL1 p.R105W variant (mouse Ndel1 cDNA) (mouse) (UniProt Q9ERR1)
T3 sequence: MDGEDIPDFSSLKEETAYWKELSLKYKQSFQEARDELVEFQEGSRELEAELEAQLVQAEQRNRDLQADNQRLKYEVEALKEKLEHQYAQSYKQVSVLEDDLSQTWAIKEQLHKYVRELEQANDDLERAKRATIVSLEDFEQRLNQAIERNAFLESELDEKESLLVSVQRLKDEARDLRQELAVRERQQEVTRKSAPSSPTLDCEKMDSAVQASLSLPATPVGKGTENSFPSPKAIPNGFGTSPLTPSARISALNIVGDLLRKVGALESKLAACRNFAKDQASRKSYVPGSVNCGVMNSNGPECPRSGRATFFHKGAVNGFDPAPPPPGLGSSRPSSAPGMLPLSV

Measured: binding

B1: LIS1 (protein, UniProt P43034 1-410)
chain: MVLSQRQRDELNRAIADYLRSNGYEEAYSVFKKEAELDVNEELDKKYAGLLEKKWTSVIRLQKKVMELESKLNEAKEEFTSGGPLGQKRDPKEWIPRPPEKYALSGHRSPVTRVIFHPVFSVMVSASEDATIKVWDYETGDFERTLKGHTDSVQDISFDHSGKLLASCSADMTIKLWDFQGFECIRTMHGHDHNVSSVAIMPNGDHIVSASRDKTIKMWEVQTGYCVKTFTGHREWVRMVRPNQDGTLIASCSNDQTVRVWVVATKECKAELREHEHVVECISWAPESSYSSISEATGSETKKSGKPGPFLLSGSRDKTIKMWDVSTGMCLMTLVGHDNWVRGVLFHSGGKFILSCADDKTLRVWDYKNKRCMKTLNAHEHFVTSLDFHKTAPYVVTGSVDQTVKVWECR
binds: [1] | [2] | [3]
